# PMC10163288
# This is one part of the list.
# B1: il10ra_site1_normal_mot_HHH_b2_08287_af2_000000247_0001_1_16_H_._HHH_b2_07820_0001_0000300057_0000001_0_af2pred_0001 (protein)
# chain: SSSSDEEEEEVKELLEEAKRIDDPRERTRVLVEAYALAFELNNPELEELVKEVAIELLERSSSSS
# B2: il10ra_site1_normal_mot_HHH_b2_00475_000000107_0001_44_57_H_._HHH_b1_00662_0001_0000100003_0000001_0 (protein)
# chain: SSSSSIEERIVQLLFRALRLHAEGNPEEAERLIEEAEQLAEELGDPELEEYIRILKHFVKSSSSS
# B3: il10ra_site1_normal_mot_HHH_b2_00277_af2_000000172_0001_1_17_H_._HHH_b1_05106_af2_0001_0000800024_0000002_0_af2pred_0001 (protein)
# chain: SSSSSEERVEELLKELEKLVEEGDEEEFRRVLIEAALLAARLKDNELSIIIIRLFSLFHRSSSSS
# B4: il10ra_site1_sap_17_mot_HHH_b2_06979_000000158_0001_42_57_H_._HHH_b2_05702_af2_0001_0000600046_0000002_0_0001 (protein)
# chain: SSSSDEAYRAVEKAIEEALKLWRNGNPEEAQELIEEVIKELRELGNWAAVWSAEHALRVLRSSSS
# B5: il10ra_site1_normal_mot_HHH_b2_00622_af2_000000153_0001_40_57_H_._HHH_b2_07019_0001_0000200036_0000001_0 (protein)
# chain: SSSSSEAERSLRRLIHAAEFLIKQGDPEAARRTLRFAAALARDAGNPELLEEIRELLEELGSSSS
# B6: il10ra_site1_normal_mot_HHH_b2_00475_000000107_0001_44_57_H_._HHH_b1_03395_0001_0000200011_0000001_0 (protein)
# chain: SSSSDLAERVSQLLIRAIRLLAEGDEEEARELVEEAKELAEEHNDEELLKYIEIVEHFVNSSSSS
# B7: il10ra_site1_normal_mot_HHH_b1_02131_000000111_0001_1_18_H_._HHH_b1_04628_af2_0001_0000100001_0000001_0 (protein)
# chain: SSSSSDEEELEELLEELEELVKKNDFQEALEIAIRIVRLAFELSDEEVLQLAHELAQSLISSSSS
# B8: il10ra_site1_normal_mot_HHH_b2_05454_000000273_0001_1_18_H_._HHH_b1_00591_af2_0001_0000100005_0000002_0 (protein)
# chain: SSSSSEEEKEIEKLLEELERAIEENDPELALRLLQRILQLIFRLGNAELFREVWELAKRIASSSS
# B9: il10ra_site1_normal_mot_HHH_b2_03438_af2_000000049_0001_18_34_H_._HHH_b1_00814_af2_0001_0000500053_0000001_0 (protein)
# chain: SSSSDEEEEELEELLEELKELIKRGDAEEVYKLSRRIAELAHELNDQEVFRKVLELLRRFFSSSS
# B10: il10ra_site1_normal_mot_HHH_b1_05937_af2_000000262_0001_20_37_H_._HHH_b2_01038_af2_0001_0000600008_0000001_0 (protein)
# chain: SSSSSDEEYREEVEELLEEAEKIEDLHEVLRLLIEALRIAFKVGDDELLKLIWEVAREHSSSSSS
# B11: il10ra_site1_normal_mot_HHH_b2_00441_000000147_0001_1_18_H_._HHH_b1_00591_0001_0000300010_0000002_0_af2pred_0001 (protein)
# chain: SSSSSHAEELIELALRALRFAIELNDPERAKLAIKDIKLDIKDEGNEELQEIVEELERRIHSSSS
# B12: il10ra_site1_sap_18_mot_HHH_b1_08411_af2_000000053_0001_1_20_H_._HHH_b1_05631_0001_0000100005_0000002_0_0001_af2pred_0001 (protein)
# chain: SSSSDEEERLEELLERIEELIERGDPEEAAKVLFEAIKLAAELNDEESLKLLLELLKRIFSSSSS
# B13: il10ra_site1_normal_mot_HHH_b1_00999_000000080_0001_41_55_H_._HHH_b1_02494_af2_0001_0000100011_0000001_0 (protein)
# chain: SSSSDELEELIEEIEELIEEGNLEEAQELIQEAVRHAFRLKDEEALQRLWELAKLVGELLSSSSS
# B14: il10ra_site1_normal_mot_HHH_b1_05056_000000217_0001_1_20_H_._HHH_b2_02752_0001_0000200015_0000001_0 (protein)
# chain: SSSSDLEEELEELLRELEELIREGDREKFLRLVQEIIRLAFRTGDPEVLQKLWELVREFASSSSS
# B15: il10ra_site1_sap_28_mot_0f4c98a20d629a3dc592d0b946cdb135_0001_1_000000277_0001_1_13_H_._HHH_b1_08444_af2_0001_0000400017_0000001_0_0001_af2pred_dldesign_0_af2pr … (protein)
# chain: SSSSSPEEEALEKQLDYIRWLIEEGALDLARRSLANAEELAKKAGNEEILKRIAALREELESSSS
# B16: il10ra_site1_sap_25_mot_HHH_b1_06128_000000102_0001_1_20_H_._HHH_b1_04347_0001_0000300023_0000001_0_0001 (protein)
# chain: SSSTEEVIRKAARVAQEAIRLAIQRSDQETFEQLWELFKRIIREGDPELLEELERLLEELRSSSS
# B17: il10ra_site1_normal_mot_42f8b9a235e54c912819b8ab3aebd5a2_0001_af2_000000295_0001_34_48_H_._96acec432cdb841898d80330b1faeb22_0001_0001_0000400016_0000001_0_af2pr … (protein)
# chain: DKEEEEIEELLEEGDEEEAKELVIRILSKVLNIPPEEAREYLERLEEKAGNPELALQMALVAVRL
# B18: il10ra_site1_normal_mot_HHH_b1_04771_000000013_0001_40_56_H_._HHH_b2_03045_0001_0000300017_0000001_0 (protein)
# chain: SSSSSDDELLELSLEAFRLALRGNPEEAEEVLREALKLAEELNNERALRVVRDQLRALGSSSSSS
# B19: il10ra_site1_normal_mot_HHH_b1_07878_000000292_0001_1_19_H_._HHH_b2_02497_0001_0000200022_0000001_0 (protein)
# chain: SSSSDEAYKIAREAAEEAARLYREGDPEEAQKLLEEALRLLEELGNFSAVFALRQFLRALVSSSS
# Target: il10ra, Q13651
# Assay: yeast display titration
row,Binder,apparent Kd
1,B1,inactive: no binding seen
2,B2,inactive: no binding seen
3,B3,inactive: > 416 nM
4,B4,inactive: no binding seen
5,B5,inactive: no binding seen
6,B6,inactive: no binding seen
7,B7,inactive: no binding seen
8,B8,inactive: no binding seen
9,B9,inactive: no binding seen
10,B10,inactive: no binding seen
11,B11,inactive: no binding seen
12,B12,inactive: no binding seen
13,B13,inactive: no binding seen
14,B14,inactive: no binding seen
15,B15,inactive: no binding seen
16,B16,inactive: no binding seen
17,B17,inactive: no binding seen
18,B18,inactive: no binding seen
19,B19,inactive: no binding seen
